# Values joined by “and” are separate entries in the source; they are usually repeats but may differ in a detail not shown here. Equal entries are not always repeated. Hit rate of the full screen: of about 300,000 compounds, about 5,400 (1.8%) were called active. Inconclusive results, whose numbers are uncertain, are shown with a selection of clear calls. Calls come from the whole dose curve; tested in HEK293 cells. Potencies beside an inconclusive call are fits to weak or partial responses and may not hold up.
# Assay: qHTS for inhibitors of binding or entry into cells for Marburg Virus
# Settings: Marburg virus pseudotyped entry inhibition, cell reporter; activity change, negative = inhibition: at 37.8 µM (top of the series) unless noted
# % is set by controls: 0 for no effect and ±100 for the full control effect; potency is the fitted concentration of half-maximal effect.
Compound,Potency,"activity change, negative = inhibition"
COc1ccc(C2CC(c3ccc4ccccc4c3)=NN2C(=O)COC(=O)C2CCC(=O)N2)cc1 (stereo not drawn),"inconclusive: 3.16 µM [activator, single point]",
COc1c(O)ccc(/C=C(\C#N)c2nc3ccccc3[nH]2)c1[N+](=O)[O-],inactive,
CCOC(=O)Cc1c[nH]c2ccc([N+](=O)[O-])cc12,"inconclusive: 35.5 µM [inhibitor, single point]",
O=C(Nc1ccc(N2CCOCC2)c(Cl)c1)c1cc2ccccc2o1,"inconclusive: 35.5 µM [inhibitor, single point]",
CC1CCC2(CC1)NC(=O)N(NC(=O)CCl)C2=O (stereo not drawn),inactive,
c1ccc(N2CCN(c3ncnc4sc5c(c34)CCC5)CC2)cc1,"inconclusive: 28.2 µM [inhibitor, single point]",
CC(C)CCC(CCN1CCOCC1)c1ccc2c(c1)OCO2 (stereo not drawn),active: 11.6 µM,
O=C(CCOc1cccc(Br)c1)Nc1ccc(F)c(S(=O)(=O)N2CCOCC2)c1,"inconclusive: 35.5 µM [inhibitor, single point]",
O=C(NC1CC1)c1ccc(NS(=O)(=O)c2ccc(F)cc2)cc1,"inconclusive: 3.16 µM [activator, full curve, poor fit]",
COc1ccccc1NC(=O)CSC1=NCCN1,"inconclusive: 3.55 µM [inhibitor, single point]",
COC(=O)C/C=C\[C@@H](C)[C@@H](/C=N\OCC[C@H]1C=C[C@H](OC(C)=O)[C@@H](COC(C)=O)O1)NS(=O)(=O)c1ccc(C)cc1,"inconclusive: 0.266 µM [activator, full curve, poor fit]",
Cc1ccc2oc(C(=O)N(Cc3cccc(F)c3)C3CCS(=O)(=O)C3)c(C)c2c1 (stereo not drawn),inactive,
c1ccc2nc(N3CCCC3)c(N3CCCCC3)nc2c1,inactive,
CCc1ccc2c(c1)C(=O)c1ccccc1C2=O,inactive,
Cc1ccc(C(=O)NCCOc2cccc3cccnc23)cc1Cl,"inconclusive: 35.5 µM [inhibitor, single point]",
CCOC(=O)c1nc(Nc2ccc(C(=O)OCC(C)C)cc2)c2ccccc2n1,"inconclusive: 22.4 µM [inhibitor, single point]",
Nc1ccc(C(=O)N/N=C/c2cn(Cc3cccc(F)c3)c3ccccc23)cc1,"inconclusive: 35.5 µM [inhibitor, single point]",
O=C(COc1ccccc1Br)NC(=O)NC1CCCC1,"inconclusive: 6.31 µM [activator, partial curve, poor fit]",
Cc1ccnc(NC(=O)c2cccc(NC(=O)c3ccc(Cl)c(Cl)c3)c2)c1,"inconclusive: 6.31 µM [inhibitor, single point]",
COc1ccc(CNc2cccc3[nH]c(C(F)(F)F)nc23)cc1,inactive,
CCNC(=S)NNC(=O)c1cccnc1,inactive,
N#Cc1ccc(NC2c3ccccc3CC2O)cc1 (stereo not drawn),"inconclusive: 15.8 µM [inhibitor, single point]",
COC(=O)CCC(=O)OC1(C)C(=O)C=C2C=C(C3CC3)N(Cc3ccc4c(c3)OCO4)C=C2C1=O (stereo not drawn),inactive,

# In the list so far, these have an NH in an aromatic ring:
Compound,Potency,"activity change, negative = inhibition"
COc1c(O)ccc(/C=C(\C#N)c2nc3ccccc3[nH]2)c1[N+](=O)[O-],inactive,
CCOC(=O)Cc1c[nH]c2ccc([N+](=O)[O-])cc12,"inconclusive: 35.5 µM [inhibitor, single point]",
COc1ccc(CNc2cccc3[nH]c(C(F)(F)F)nc23)cc1,inactive,

# Carrying on:

Compound,Potency,"activity change, negative = inhibition"
COC(=O)C[C@H](NC(=O)Cn1cnc(C(=O)Nc2ccc(C)c(C)c2)n1)C(=O)OC,inactive,
CCCCC(=O)Oc1c(S(=O)(=O)c2ccc(C)cc2)c(C)nn1C(C)(C)C,"inconclusive: 22.4 µM [inhibitor, single point]",
O=C(O)CCC(=O)NC(c1ccccc1)c1ccccc1,,inconclusive: 0.399% [activator] [at 46.1 µM]
Cc1ccc(-n2c(O)c(/C=C3/C(c4ccccc4)=Nc4ccccc43)c(=O)[nH]c2=O)cc1,"inconclusive: 22.4 µM [activator, single point]",
C/C(NC(=O)c1ccccc1F)=C1\C(=O)C[C@@H]2[C@H]1C2(C)C,"inconclusive: 17.8 µM [activator, partial curve, poor fit]",
Cc1ccc2[nH]c3c(c2c1)CN(C(=O)CN1CCN(c2cccc(C)c2C)CC1)CC3,"inconclusive: 35.5 µM [inhibitor, single point]",
Cc1cc(C(=O)CCl)c(C)n1-c1cccc(S(=O)(=O)N2CCOCC2)c1,"inconclusive: 12.6 µM [inhibitor, single point]",
CC1CCCCC12NC(=O)N(CC(=O)NC(=O)Nc1ccc3c(c1)OCCO3)C2=O (stereo not drawn),inactive,
O=C1CCCN2N=C(SCC(=O)Nc3ccccc3C(F)(F)F)SC2=N1,inactive,
COc1ccc(OCCCN2CCCC(C)C2)cc1 (stereo not drawn),"inconclusive: 35.5 µM [inhibitor, single point]",
O=C(O)C1C(=O)NCC1c1ccccc1 (stereo not drawn),"inconclusive: 25.1 µM [activator, single point]",
O=C(Nc1ccccc1)c1ccc(NC2CCCCC2)c(S(=O)(=O)N2CCOCC2)c1,"inconclusive: 16.4 µM [inhibitor, partial curve, poor fit]",
Cc1ccccc1/C=C1\OC(=O)c2ccccc21,inactive,
COc1ccccc1-c1cc(C(=O)NCc2ccc(F)cc2)no1,inactive,
Cn1c(/C(C#N)=C(\O)c2ccccc2Cl)nc2ccccc21,"inconclusive: 11.2 µM [inhibitor, partial curve, poor fit]",
CN1CCC(c2c[nH]c3ccc(O)cc23)CC1,"inactive and inconclusive: 112 nM [inhibitor, full curve, poor fit]",
Cc1cccc(Cn2cc(C(=O)c3ccccc3)c(=O)c3cc4c(cc32)OCO4)c1,"inconclusive: 35.5 µM [inhibitor, single point]",
O=C(Cc1cccc2ccccc12)N/N=C/c1ccc(F)cc1,inactive,
COc1ccc(C(=O)Nc2nc3ccc(S(C)(=O)=O)cc3s2)cc1OC,"inconclusive: 3.55 µM [activator, partial curve, poor fit]",
CCN(CC)CCOC(=O)c1ccc(NC(=O)COc2cc(=O)n(CC)c3ccccc23)cc1,"inconclusive: 32.6 µM [inhibitor, single point]",
NC(=S)NNC(=O)Nc1cccc(Cl)c1,"inconclusive: 6.31 µM [activator, partial curve]",
CC(OC(=O)c1cccs1)C(=O)NCc1ccc2c(c1)OCO2 (stereo not drawn),"inconclusive: 1.64 µM [inhibitor, partial curve]",
COc1ccc(C2C3C(=O)N(Cc4ccccc4)C(=O)C3ON2c2ccccc2)c(OC)c1OC (stereo not drawn),"inconclusive: 17.8 µM [inhibitor, partial curve, poor fit]",

Compound,Potency,"activity change, negative = inhibition"
CCN(CC)CCN(C(=O)c1ccc(CN2CCCCC2)o1)C(C(=O)NC1CCCCC1)c1ccc(F)cc1 (stereo not drawn),active: 5.01 µM,
CCCCN1C(=O)c2ccc(C(=O)Nc3cccc(C)c3C)cc2C1=O,inactive,
Cc1occc1C(=O)N/N=C/c1ccc2c(c1)OCO2,"inconclusive: 0.562 µM [activator, full curve, poor fit]",
Fc1ccc(C(c2nnnn2CCc2ccccc2)N2CCCc3ccccc32)cc1 (stereo not drawn),"inconclusive: 7.94 µM [inhibitor, partial curve, poor fit]",
Cc1cccc(OCC(=O)Nc2ccccc2N2CCCCC2)c1,inactive,
COc1ccccc1Nc1nc(Cl)nc(NC(C)(C)C)n1,"inconclusive: 6.31 µM [inhibitor, full curve, poor fit]",
COc1ccc(NN=Nc2ccc([N+](=O)[O-])cc2)cc1,"inconclusive: 1.26 µM [activator, single point]",
NC(=O)C(c1ccc(Cl)cc1)c1ccc(Sc2ccc(Cl)cc2)nn1 (stereo not drawn),"inconclusive: 22.4 µM [inhibitor, single point]",
C/C(=N\OC(=O)c1ccc(Cl)cc1)c1sc(-c2ccccc2)nc1C,"inconclusive: 1 µM [activator, partial curve, poor fit]",
COc1ccc(/C=C2\N=C(c3ccccc3)NNC2=O)cc1,"inconclusive: 35.5 µM [inhibitor, single point]",
CN/C(=C\[N+](=O)[O-])NCCSCc1ccc(CN(C)C)o1,,inconclusive: -43.3% [inhibitor]
COc1ccc(NC(=O)CSc2oc(-c3cccs3)nc2S(=O)(=O)c2ccc(Br)cc2)c(OC)c1,"inconclusive: 12.6 µM [activator, single point]",
Cc1cc(C)cc(C(=O)N(CCc2ccccc2)C2CC3CCC(C2)N3C)c1 (stereo not drawn),active: 3.16 µM,
CCCCN(C(=O)c1cccc(S(=O)(=O)N(C)c2ccc(C)cc2)c1)c1c(N)n(CCCC)c(=O)[nH]c1=O,inactive,
COc1ccccc1CNCc1cc(Br)ccc1OC,"inconclusive: 8.91 µM [inhibitor, partial curve, poor fit]",
O=C(NNC(=O)C1CC1c1ccccc1)c1cccc([N+](=O)[O-])c1 (stereo not drawn),"inconclusive: 35.5 µM [activator, single point]",
C=CCOc1ccc(/C(O)=C2\C(=O)C(=O)N(CCN(C)C)C2c2cccs2)cc1 (stereo not drawn),inactive,
COc1ccc(/C=N\NC(=O)c2cc(OCC(F)(F)F)ccc2OCC(F)(F)F)cc1,"inconclusive: 0.112 µM [inhibitor, full curve, poor fit]",
COc1ccc(Cl)cc1NC(=O)CN(C)C(=O)c1n[nH]c2ccccc12,"inconclusive: 25.1 µM [inhibitor, single point]",
Cc1c(O)c(=O)ccn1Cc1ccccc1,"inconclusive: 1.19 µM [activator, single point]",
O=C1c2cccc3c([N+](=O)[O-])ccc(c23)C(=O)N1CC1CCCO1 (stereo not drawn),active: 23.1 µM,
O=C(O)C1CCCN(S(=O)(=O)c2ccc3c(c2)OCCO3)C1 (stereo not drawn),"inconclusive: 5.01 µM [activator, single point]",

# An excerpt from above in order of length of the SMILES, smallest number first:
Compound,Potency,"activity change, negative = inhibition"
Cc1ccccc1/C=C1\OC(=O)c2ccccc21,inactive,
c1ccc(N2CCN(c3ncnc4sc5c(c34)CCC5)CC2)cc1,"inconclusive: 28.2 µM [inhibitor, single point]",
Cc1ccc2[nH]c3c(c2c1)CN(C(=O)CN1CCN(c2cccc(C)c2C)CC1)CC3,"inconclusive: 35.5 µM [inhibitor, single point]",
